The supplement of paper PMC11732987, “Enantioselective OTUD7B fragment discovery through chemoproteomics screening and high-throughput optimisation” (Communications Chemistry, 2025)
The other results are listed elsewhere or left out. The data scatter; read single values as rough.

The chains behind the UniProt entries cited, without tags or fusion partners. Where a name states a change or a piece, a line headed by the entry shows the natural chain unless it says otherwise. Residues count along the entry.
UniProt P78527, 3336-3357: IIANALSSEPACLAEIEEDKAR
UniProt P78527, whole entry, looked up: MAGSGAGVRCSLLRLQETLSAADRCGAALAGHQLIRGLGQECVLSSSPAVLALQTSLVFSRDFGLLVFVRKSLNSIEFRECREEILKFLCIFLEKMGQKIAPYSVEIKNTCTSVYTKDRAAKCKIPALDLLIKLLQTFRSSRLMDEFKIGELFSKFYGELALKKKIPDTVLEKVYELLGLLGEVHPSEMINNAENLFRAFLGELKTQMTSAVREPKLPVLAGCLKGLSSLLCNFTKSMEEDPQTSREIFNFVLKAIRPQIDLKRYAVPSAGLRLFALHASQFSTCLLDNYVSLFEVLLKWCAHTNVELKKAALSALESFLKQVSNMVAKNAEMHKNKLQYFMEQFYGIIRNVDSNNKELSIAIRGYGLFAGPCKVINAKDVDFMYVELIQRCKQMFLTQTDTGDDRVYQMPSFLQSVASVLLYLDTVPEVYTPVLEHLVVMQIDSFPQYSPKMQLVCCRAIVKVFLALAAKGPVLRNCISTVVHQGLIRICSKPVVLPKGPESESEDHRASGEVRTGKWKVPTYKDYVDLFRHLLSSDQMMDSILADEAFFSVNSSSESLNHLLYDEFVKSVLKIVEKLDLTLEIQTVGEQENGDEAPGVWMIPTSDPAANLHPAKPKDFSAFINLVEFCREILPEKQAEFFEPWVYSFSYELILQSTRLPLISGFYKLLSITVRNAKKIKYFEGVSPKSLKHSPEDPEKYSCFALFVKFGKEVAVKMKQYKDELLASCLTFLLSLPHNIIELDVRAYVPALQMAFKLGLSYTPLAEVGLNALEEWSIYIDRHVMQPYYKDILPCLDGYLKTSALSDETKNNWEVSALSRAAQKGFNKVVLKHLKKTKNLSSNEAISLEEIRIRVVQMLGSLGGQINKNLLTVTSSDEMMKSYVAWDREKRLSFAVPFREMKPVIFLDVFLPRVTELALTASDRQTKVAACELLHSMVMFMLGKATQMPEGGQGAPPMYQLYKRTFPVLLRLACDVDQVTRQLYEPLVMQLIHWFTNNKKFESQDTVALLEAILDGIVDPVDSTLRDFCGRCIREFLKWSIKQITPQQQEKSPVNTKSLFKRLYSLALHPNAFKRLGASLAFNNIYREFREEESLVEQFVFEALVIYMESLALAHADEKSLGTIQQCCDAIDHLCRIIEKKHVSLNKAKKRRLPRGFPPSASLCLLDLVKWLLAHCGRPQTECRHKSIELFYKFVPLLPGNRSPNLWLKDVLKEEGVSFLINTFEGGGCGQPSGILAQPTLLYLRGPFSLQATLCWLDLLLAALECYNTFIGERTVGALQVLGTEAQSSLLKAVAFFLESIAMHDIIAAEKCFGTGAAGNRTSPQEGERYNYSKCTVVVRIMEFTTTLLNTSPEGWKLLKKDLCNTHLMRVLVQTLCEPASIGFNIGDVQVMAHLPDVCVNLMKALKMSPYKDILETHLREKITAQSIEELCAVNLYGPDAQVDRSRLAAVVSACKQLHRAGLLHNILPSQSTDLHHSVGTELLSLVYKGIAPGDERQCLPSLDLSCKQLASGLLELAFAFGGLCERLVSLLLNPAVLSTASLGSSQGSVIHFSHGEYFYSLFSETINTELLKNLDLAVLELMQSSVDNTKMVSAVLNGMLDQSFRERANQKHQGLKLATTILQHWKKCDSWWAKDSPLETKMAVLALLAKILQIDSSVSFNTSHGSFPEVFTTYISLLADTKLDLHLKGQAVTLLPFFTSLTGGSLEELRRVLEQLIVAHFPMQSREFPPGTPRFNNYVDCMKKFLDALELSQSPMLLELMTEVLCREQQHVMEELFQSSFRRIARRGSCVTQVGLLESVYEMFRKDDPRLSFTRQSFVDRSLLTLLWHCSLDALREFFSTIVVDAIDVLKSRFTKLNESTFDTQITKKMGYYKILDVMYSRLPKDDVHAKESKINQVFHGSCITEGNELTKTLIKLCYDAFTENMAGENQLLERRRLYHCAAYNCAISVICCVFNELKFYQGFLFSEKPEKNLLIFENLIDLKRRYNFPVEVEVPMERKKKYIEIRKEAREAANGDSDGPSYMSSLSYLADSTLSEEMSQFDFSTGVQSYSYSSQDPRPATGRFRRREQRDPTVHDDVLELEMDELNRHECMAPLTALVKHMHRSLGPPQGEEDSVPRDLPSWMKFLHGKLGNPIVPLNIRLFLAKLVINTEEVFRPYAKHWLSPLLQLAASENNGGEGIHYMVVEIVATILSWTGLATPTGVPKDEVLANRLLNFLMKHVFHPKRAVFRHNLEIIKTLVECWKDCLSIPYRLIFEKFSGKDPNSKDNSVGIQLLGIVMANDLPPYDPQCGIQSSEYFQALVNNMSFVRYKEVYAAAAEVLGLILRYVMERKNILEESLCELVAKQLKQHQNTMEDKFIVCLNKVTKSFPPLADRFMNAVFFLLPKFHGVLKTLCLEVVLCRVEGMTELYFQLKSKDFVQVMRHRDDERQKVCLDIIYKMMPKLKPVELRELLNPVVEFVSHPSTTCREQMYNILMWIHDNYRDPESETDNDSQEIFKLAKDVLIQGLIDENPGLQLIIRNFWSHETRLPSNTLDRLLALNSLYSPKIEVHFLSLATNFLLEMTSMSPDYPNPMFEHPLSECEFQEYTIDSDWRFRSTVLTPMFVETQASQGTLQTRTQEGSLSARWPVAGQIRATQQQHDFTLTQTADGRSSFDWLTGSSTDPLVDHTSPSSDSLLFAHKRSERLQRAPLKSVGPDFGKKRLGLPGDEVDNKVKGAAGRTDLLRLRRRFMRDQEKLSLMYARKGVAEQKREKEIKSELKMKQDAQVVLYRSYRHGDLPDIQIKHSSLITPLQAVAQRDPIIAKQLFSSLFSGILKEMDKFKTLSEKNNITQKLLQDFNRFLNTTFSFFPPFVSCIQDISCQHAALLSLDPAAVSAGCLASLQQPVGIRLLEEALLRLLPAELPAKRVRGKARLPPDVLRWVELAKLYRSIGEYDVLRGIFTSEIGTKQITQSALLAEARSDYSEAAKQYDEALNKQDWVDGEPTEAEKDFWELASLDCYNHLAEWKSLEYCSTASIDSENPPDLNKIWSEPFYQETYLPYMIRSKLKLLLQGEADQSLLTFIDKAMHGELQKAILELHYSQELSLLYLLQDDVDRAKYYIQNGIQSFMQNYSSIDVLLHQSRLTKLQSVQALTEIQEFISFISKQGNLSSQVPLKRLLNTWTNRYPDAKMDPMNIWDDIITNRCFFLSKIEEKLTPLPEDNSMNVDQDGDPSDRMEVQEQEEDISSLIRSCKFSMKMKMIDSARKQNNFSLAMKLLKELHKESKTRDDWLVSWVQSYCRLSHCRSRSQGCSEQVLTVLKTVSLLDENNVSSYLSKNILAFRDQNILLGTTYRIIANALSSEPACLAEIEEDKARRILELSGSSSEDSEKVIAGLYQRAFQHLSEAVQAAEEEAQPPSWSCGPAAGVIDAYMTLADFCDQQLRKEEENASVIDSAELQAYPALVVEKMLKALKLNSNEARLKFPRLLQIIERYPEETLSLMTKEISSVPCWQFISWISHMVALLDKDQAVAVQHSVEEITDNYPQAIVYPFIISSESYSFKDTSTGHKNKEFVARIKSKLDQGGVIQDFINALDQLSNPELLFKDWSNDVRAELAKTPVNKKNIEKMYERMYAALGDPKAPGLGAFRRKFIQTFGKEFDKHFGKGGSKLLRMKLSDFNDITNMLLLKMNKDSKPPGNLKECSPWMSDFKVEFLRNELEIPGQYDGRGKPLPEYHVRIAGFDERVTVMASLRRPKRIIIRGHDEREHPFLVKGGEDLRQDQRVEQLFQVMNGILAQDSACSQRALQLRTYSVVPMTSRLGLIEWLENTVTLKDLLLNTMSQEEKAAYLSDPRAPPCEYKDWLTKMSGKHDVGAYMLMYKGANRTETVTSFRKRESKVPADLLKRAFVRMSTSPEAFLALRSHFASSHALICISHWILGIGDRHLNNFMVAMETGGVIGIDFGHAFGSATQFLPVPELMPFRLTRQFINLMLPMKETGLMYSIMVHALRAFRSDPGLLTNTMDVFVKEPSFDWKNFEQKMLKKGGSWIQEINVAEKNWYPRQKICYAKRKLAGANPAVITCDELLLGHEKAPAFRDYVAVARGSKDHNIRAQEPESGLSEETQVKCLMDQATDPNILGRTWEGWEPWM
UniProt O75145: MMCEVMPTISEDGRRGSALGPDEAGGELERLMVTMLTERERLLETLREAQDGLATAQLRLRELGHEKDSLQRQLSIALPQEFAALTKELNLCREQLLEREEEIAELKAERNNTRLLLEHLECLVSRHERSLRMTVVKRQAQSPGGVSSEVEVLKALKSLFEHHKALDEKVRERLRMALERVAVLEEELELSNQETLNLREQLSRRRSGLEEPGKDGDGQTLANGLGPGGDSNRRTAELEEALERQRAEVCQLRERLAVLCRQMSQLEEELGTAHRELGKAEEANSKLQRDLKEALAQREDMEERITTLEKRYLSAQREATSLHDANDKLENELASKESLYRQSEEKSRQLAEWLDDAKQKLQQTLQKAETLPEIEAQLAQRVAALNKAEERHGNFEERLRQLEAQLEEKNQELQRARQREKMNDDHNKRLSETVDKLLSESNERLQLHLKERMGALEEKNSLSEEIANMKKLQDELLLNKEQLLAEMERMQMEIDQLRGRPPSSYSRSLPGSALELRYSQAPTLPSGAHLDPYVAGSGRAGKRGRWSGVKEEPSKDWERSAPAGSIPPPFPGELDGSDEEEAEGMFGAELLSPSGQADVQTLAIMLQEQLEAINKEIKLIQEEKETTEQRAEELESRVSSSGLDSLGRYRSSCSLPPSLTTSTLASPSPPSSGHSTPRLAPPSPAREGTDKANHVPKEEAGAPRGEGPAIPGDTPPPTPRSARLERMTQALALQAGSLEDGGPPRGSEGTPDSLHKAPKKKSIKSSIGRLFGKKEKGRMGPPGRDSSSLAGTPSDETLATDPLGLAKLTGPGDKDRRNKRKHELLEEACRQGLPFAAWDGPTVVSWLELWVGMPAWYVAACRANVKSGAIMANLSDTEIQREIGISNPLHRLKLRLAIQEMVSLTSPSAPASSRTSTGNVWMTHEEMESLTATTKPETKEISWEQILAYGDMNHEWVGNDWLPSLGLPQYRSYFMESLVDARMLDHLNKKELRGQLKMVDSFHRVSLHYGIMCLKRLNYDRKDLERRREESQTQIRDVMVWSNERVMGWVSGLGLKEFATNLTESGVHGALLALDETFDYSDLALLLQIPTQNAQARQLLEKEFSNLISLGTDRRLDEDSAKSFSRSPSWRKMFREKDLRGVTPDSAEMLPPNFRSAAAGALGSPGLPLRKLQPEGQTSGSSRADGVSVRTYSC
UniProt O15355: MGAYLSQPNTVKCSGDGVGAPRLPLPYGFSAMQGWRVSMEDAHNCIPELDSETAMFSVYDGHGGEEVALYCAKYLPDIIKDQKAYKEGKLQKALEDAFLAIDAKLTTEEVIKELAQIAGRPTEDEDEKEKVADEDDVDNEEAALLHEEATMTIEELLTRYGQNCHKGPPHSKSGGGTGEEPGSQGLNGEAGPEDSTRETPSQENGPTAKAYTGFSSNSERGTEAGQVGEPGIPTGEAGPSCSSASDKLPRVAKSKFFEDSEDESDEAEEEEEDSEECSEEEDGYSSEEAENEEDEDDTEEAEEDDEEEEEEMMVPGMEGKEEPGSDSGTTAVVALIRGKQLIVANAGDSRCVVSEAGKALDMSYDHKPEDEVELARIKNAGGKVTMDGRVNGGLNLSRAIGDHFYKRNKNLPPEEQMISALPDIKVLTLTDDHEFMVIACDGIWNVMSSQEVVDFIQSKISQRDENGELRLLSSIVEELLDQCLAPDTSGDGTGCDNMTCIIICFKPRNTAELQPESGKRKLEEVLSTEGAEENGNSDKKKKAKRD
UniProt O43395: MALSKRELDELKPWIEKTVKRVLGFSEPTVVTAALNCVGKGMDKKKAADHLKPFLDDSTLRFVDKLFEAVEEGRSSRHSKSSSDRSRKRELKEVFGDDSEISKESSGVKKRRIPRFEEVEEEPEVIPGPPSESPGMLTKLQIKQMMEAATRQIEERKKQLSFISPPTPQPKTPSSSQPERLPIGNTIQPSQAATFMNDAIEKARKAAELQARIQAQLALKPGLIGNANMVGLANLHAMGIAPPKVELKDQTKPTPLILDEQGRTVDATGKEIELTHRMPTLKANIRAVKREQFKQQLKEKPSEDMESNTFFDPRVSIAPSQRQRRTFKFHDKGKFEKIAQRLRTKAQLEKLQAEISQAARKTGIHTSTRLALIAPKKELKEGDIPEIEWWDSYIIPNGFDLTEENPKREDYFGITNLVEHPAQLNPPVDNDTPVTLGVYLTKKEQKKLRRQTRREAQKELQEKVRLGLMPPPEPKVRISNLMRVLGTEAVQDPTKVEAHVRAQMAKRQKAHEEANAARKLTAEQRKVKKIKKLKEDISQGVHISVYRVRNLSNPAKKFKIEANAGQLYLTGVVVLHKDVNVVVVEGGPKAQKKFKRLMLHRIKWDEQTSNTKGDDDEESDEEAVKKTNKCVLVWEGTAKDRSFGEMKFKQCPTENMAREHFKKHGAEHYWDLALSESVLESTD

How the values were obtained:
[1] = compound: ClCC(=O)N[C@@H]1CCCc2ccccc12; assay: log2 mean competition ratio of IA-DTB cysteine labelling (DMSO/compound) (log2 ratio); higher = stronger cysteine engagement by compound; settings: treatment time: 4 h, cell line lysate: HEK293T
Protocol: (§1)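 IA-DTB competitive cysteine chemoproteomics in HEK293T RIPA lysate. Lysates were treated with compound 29 or 30 at 50 or 200 µM for 4 h, then IA-DTB (500 µM, 1 h), trypsin-digested, NeutrAvidin-enriched and analysed by diaPASEF. Competition ratio = intensity DMSO / intensity compound (n=4 treated, n=64 DMSO); binding: mean log2 CR ≥ 1 and p ≤ 0.05 plus QC filters. Target is the cysteine site.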

[2] = compound: ClCC(=O)N[C@H]1CCCc2ccccc12; assay: as above; settings: treatment time: 4 h, cell line lysate: HEK293T
Protocol: as §1

| Target | log2 mean competition ratio ([1]; 50 µM) | log2 mean competition ratio ([1]; 200 µM) | log2 mean competition ratio ([2]; 50 µM) | log2 mean competition ratio ([2]; 200 µM) |
| --- | --- | --- | --- | --- |
| PRKDC C1919 (UniProt P78527) | 0.221 | 0.49 | 0.331 | 0.344 |
| POLR3A C742 (UniProt O14802) | 0.2 | 0.0847 | 0.0168 | 0.16 |
| PPFIA3 C250 (UniProt O75145) | -0.132 | -0.554 | 0.42 | -0.173 |
| POLR2B C357 (UniProt P30876) | -0.17 | 0.0589 | -0.324 | -0.0494 |
| PRKDC C3347 (UniProt P78527) | 0.0391 | -0.146 | 0.169 | -0.19 |
| PPP2R1A C377 (UniProt P30153) | -0.0251 | 0.0207 | 0.0418 | 0.138 |
| PPM1G C13 (UniProt O15355) | -0.11 | 0.073 | -0.183 | 0.127 |
| PRKCB C586 (UniProt P05771) | -0.134 | -0.084 | -0.295 | -0.108 |
| PPP1R3G C225 | 0.138 | -0.26 | 0.0965 | -0.347 |
| PRR12 C417 (UniProt Q9ULL5) | -0.00453 | 0.347 | 0.185 | -0.223 |
| PRPS1 C41 | -0.192 | -0.502 | 0.11 | -0.377 |
| PPFIBP2 C361 (UniProt Q8ND30) | -0.0792 | -0.0366 | -0.311 | -0.0564 |
| POM121 C268 (UniProt Q96HA1) | 0.132 | -0.000758 | 0.566 | 0.172 |
| PRKRA C54 (UniProt O75569) | 0.215 | -0.121 | 0.798 | -0.0429 |
| PRPF3 C651 (UniProt O43395) | -0.111 | 0.271 | 0.045 | 0.25 |
| PPA2 C274 (UniProt Q9H2U2) | 0.111 | -0.314 | 0.348 | -0.293 |
| POLR2B C837 (UniProt P30876) | -0.0448 | 0.182 | -0.0192 | 0.207 |
| POLR2B C892 (UniProt P30876) | -0.0358 | 0.0725 | -0.152 | 0.203 |
| POLR2M C115 | 0.0764 | -0.44 | 0.764 | -0.0157 |
| PPP6R2 C216 (UniProt O75170) | -0.293 | 0.257 | -0.0855 | 0.347 |
| PRKDC C81 (UniProt P78527) | -0.0803 | -0.154 | -0.0916 | -0.228 |
| POLR3E C676 (UniProt Q9NVU0) | 0.0859 | -0.0817 | -0.444 | 0.0639 |
| PPP2R5B C113 (UniProt Q15173) | 0.0224 | -0.0434 | -0.337 | -0.0442 |
| PPP1R12C C211 (UniProt Q9BZL4) | -0.101 | -0.149 | 0.263 | -0.048 |

Random excerpt: 2 records from the list

| Target | log2 mean competition ratio ([1]; 50 µM) | log2 mean competition ratio ([1]; 200 µM) | log2 mean competition ratio ([2]; 50 µM) | log2 mean competition ratio ([2]; 200 µM) |
| --- | --- | --- | --- | --- |
| POLR2M C115 | 0.0764 | -0.44 | 0.764 | -0.0157 |
| PPP1R12C C211 (UniProt Q9BZL4) | -0.101 | -0.149 | 0.263 | -0.048 |
